Measurements taken from PMC5996148.
The other results are listed elsewhere or left out. For some of these results: Construct or isoform of the protein are uncertain.

Assays:
Assay in all cases: protein microarray (ProtoArray v5.0), streptavidin-Alexa Fluor 647
Settings in all cases: 3'-biotin; 20 mM Tris (pH 7.5), 5 mM MgCl2, 100 mM KCl, 0.1% Tween-20, A/T-rich and random oligonucleotide blockers; temperature not stated; high values mean tight binding
[1] = system: CRLF3 (human)
[2] = system: CROP (human)
[3] = system: CROT (human)
[4] = system: CRTAC1 (human)
[5] = system: CRY1 (human)
[6] = system: CRYAA (human)
[7] = system: CRYBA1 (human)
[8] = system: CRYBB2 (human)
[9] = target: T1, CRYZ (UniProt Q08257)
T1 sequence: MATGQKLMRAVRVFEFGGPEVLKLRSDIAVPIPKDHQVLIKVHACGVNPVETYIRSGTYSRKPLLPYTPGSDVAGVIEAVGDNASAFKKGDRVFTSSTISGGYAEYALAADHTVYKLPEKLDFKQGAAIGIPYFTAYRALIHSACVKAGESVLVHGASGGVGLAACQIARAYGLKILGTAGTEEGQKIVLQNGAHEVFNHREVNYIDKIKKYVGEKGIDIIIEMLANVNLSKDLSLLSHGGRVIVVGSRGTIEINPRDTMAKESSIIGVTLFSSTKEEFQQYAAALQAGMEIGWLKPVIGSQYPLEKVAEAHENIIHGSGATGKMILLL

[10] = system: CRYZL1 (human)

GGGAGGCTGAGGCAGG [G4-1 biotinylated (PQS2)]
binding signal [1]: -0.342 z-score
binding signal [2]: -0.332 z-score
binding signal [3]: -0.288 z-score
binding signal [4]: -0.301 z-score
binding signal [5]: -0.3 z-score
binding signal [6]: -0.336 z-score
binding signal [7]: -0.341 z-score
binding signal [8]: -0.235 z-score
binding signal [9]: -0.319 z-score
binding signal [10]: -0.301 z-score
